# Primary screen of a compound library

Chains of the proteins cited; added tags and fusions are not shown. Residues count along the entry.
UniProt P9WPC5, whole entry: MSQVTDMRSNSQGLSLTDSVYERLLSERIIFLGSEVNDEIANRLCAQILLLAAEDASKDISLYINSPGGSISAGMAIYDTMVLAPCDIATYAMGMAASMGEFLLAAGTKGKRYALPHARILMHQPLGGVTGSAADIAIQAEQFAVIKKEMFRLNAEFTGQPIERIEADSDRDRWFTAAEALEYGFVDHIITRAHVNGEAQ
UniProt P9WPC3, whole entry partner: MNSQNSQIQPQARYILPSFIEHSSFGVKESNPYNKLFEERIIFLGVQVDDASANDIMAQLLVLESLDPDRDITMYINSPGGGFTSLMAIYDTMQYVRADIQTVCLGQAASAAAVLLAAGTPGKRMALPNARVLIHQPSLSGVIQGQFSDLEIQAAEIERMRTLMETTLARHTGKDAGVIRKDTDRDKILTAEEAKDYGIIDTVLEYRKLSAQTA
UniProt I6X8D2, whole entry: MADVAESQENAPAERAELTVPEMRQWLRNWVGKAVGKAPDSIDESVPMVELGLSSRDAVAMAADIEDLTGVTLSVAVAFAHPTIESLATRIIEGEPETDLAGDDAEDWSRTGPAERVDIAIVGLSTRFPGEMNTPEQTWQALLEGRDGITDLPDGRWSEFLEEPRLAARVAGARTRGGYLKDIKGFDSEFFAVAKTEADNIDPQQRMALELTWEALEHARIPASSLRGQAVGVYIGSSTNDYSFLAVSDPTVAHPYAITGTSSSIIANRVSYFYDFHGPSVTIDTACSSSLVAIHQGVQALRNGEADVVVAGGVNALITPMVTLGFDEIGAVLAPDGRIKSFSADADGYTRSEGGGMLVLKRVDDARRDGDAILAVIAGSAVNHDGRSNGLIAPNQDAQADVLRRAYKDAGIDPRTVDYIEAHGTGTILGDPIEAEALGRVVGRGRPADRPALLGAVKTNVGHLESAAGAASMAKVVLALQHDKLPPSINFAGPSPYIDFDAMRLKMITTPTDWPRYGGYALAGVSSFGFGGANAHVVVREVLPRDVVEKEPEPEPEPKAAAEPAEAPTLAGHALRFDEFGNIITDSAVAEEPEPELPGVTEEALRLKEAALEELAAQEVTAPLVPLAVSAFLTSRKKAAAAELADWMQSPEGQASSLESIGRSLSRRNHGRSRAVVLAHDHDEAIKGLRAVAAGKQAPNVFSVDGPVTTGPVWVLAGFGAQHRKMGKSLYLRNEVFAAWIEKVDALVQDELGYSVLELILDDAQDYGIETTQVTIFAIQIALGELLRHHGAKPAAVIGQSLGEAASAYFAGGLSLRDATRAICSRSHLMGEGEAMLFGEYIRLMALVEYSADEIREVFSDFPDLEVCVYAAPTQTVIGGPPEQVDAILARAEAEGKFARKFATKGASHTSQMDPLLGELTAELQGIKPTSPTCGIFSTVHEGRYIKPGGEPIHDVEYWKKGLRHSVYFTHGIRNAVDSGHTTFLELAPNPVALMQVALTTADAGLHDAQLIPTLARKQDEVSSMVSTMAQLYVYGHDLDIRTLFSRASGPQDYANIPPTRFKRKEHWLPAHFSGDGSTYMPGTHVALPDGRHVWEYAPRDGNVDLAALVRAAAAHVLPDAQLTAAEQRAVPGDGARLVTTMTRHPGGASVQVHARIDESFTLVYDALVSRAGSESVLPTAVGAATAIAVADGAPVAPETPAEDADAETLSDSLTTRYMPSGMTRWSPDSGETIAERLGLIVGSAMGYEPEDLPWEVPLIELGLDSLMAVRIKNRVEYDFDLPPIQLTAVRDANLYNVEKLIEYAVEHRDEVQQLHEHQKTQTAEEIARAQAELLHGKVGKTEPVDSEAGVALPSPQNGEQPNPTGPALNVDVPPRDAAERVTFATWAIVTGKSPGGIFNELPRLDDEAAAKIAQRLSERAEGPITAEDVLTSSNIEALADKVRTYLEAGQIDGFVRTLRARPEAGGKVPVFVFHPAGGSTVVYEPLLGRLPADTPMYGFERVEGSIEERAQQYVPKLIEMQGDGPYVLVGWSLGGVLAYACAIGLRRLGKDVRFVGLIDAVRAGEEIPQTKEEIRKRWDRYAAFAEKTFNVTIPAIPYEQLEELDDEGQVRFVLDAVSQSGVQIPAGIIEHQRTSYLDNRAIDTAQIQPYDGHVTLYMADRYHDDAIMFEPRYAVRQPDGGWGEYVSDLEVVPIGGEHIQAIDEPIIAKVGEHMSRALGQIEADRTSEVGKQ
UniProt P9WNZ1, whole entry: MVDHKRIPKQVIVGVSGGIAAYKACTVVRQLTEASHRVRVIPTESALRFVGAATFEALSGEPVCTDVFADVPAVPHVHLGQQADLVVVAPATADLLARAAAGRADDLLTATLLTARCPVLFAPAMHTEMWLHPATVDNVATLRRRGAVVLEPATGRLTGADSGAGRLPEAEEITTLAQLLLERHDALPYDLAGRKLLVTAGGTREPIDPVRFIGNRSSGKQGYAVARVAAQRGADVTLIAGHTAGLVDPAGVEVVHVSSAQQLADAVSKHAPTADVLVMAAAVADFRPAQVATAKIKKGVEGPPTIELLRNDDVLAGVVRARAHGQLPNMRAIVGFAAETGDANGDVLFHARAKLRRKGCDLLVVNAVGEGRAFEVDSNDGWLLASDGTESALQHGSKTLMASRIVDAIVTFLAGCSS
UniProt A4I591, 1-473: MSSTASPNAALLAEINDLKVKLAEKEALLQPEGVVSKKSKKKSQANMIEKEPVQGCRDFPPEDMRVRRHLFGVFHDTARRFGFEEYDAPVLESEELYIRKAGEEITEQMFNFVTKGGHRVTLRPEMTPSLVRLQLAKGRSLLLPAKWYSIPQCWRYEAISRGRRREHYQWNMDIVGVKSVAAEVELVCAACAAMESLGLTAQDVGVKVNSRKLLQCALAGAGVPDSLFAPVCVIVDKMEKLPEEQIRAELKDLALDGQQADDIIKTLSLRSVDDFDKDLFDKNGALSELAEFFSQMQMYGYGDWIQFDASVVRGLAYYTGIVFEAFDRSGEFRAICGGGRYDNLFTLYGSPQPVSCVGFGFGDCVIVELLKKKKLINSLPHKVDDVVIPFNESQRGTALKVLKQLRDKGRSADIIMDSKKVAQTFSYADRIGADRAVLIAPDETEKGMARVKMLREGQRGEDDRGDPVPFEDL
UniProt Q4DA54, 1-478: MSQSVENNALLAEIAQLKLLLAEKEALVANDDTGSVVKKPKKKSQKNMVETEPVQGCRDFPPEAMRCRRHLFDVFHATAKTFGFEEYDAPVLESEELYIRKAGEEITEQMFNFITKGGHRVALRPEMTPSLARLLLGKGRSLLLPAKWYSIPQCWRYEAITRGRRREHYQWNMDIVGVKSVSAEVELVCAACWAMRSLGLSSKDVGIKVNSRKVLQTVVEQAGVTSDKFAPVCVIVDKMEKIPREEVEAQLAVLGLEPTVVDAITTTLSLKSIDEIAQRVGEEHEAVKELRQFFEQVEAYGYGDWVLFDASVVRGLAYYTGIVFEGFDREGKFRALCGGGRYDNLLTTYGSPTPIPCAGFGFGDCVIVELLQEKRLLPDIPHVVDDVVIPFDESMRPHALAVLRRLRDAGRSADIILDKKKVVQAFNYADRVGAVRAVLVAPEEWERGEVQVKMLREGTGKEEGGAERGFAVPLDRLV

The values are deposited in ChEMBL (CHEMBL3988442, “University of Dundee, Small-Polar-MMV Screening Library” (2021)).

ClpP1P2: 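Protease assay of ClpP1P2, read by the AMC dye that it sets free. Target: ClpP1P2, Mycobacterium tuberculosis (UniProt P9WPC5 and UniProt P9WPC3). Tested at 50 µM. Higher reads as stronger inhibition, judged from the few compounds that gave an IC50. Most other retested compounds had strongly negative values. Of about 69,000 compounds tested this way, about 10 (0.015%) reached 50% or more in at least one test.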
Pks13 thioesterase: 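Polyketide synthase Pks13, Mycobacterium tuberculosis (UniProt I6X8D2). Enzyme assay of the thioesterase domain of polyketide synthase 13; the read-out is not stated. Tested at 30 µM. The record gives no direction; the compounds picked for IC50 retests had high values, so higher reads as stronger inhibition. Size under these conditions: about 67,000 compounds, about 300 of them at 50% or above in at least one test.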
CoaBC: 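Coenzyme A biosynthesis protein CoaBC, Mycobacterium tuberculosis (UniProt P9WNZ1). Enzyme assay of CoaBC with a phosphate dye (Biomol Green) read at 650 nm. Compounds at 30 µM. Higher reads as stronger inhibition, judged from the few compounds that gave an IC50. Most strong results did not repeat in a second test. Of about 67,000 compounds tested this way, about 40 (0.06%) reached 50% or more in at least one test.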
LiHisRS: 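Enzyme assay of histidyl-tRNA synthetase; the read-out is not stated. Target: Histidine-tRNA ligase, Leishmania infantum (UniProt A4I591). Tested at 30 µM. Higher reads as stronger inhibition (inferred: compounds with an IC50 in retests scored well above the rest). The assay is labelled LdHisRS but filed under L. infantum. Of about 69,000 compounds tested this way, about 410 (0.6%) reached 50% or more in at least one test.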
TcHisRS: 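Histidine-tRNA ligase, Trypanosoma cruzi CL Brener (UniProt Q4DA54). Enzyme assay of histidyl-tRNA synthetase; the read-out is not stated. Compounds at 30 µM. The record gives no direction; compounds that gave an IC50 in retests scored well above the rest, so higher reads as stronger inhibition. Size under these conditions: about 69,000 compounds, about 31 of them at 50% or above in at least one test.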

Values are the deposited “Percent Effect”, in %. The record does not define 0% and 100%; most values in the screen are far below 50% and negative numbers occur (in some assays of this library far below -100). The compounds are a random part of those screened. A dash means the value is not listed here; it may have been measured.

Compound	ClpP1P2	Pks13 thioesterase	CoaBC	LiHisRS	TcHisRS
CCC1(C(=O)O)CCCN(CCOCc2ccccc2)C1 (stereo not shown)	-4.983%	-6.534%	0.7212%	0%	5.063%
CNCC(=O)N1CCC(c2ccnc(Nc3ccc(C)cn3)n2)C1 (stereo not shown)	-1.407%	-12.64%	0%	22.22%	0.5405%
CN(C)c1ccc(CC2COCCN(Cc3nccn3C)C2)nn1 (stereo not shown)	-7.432%	4.738%	3.641%	15.94%	8.791%
Cc1c(COc2ccccc2)cccc1NC(=O)N1CC[C@H](O)C1	-0.9236%	-9.737%	10.89%	-155.9%	3.333%
NCC1CN(c2nc(-c3cccnc3)nc3c2CCNCC3)CCO1 (stereo not shown)	6.13%	-5.22%	13.21%	27.42%	0%
Cc1cnn(C2CN(Cc3nc(-c4ccccn4)no3)C2)c1	15.17%	-21.77%	5.806%	36.52%	14.37%
Cc1[nH]nc2ncc(C(=O)N3CCN(CC(O)C(C)(C)C)CC3)cc12 (stereo not shown)	-6.69%	-21.01%	-1.205%	4.478%	4.255%
CO[C@H]1CN(Cc2cccc(C#N)c2)[C@@H]2COC[C@H]12	1.655%	-14.22%	3.934%	16.98%	3.784%
O=C(c1cc(C2CCCCC2)no1)N1C[C@H]2C[C@H](O)C[C@H]2C1	11.18%	-5.365%	0%	19.72%	5.385%
COc1ccccc1NC(=O)C1(c2ccccc2)CCOCC1	-4.942%	1.864%	2.613%	9.859%	5.385%
Cc1cc(C(=O)Nc2ccnc(OC3CCOC3)c2)c(C)o1 (stereo not shown)	-1.789%	-	4.167%	26.03%	3.941%
CCc1noc(C)c1C(=O)N1CCCC(n2nc(C)nc2C)C1 (stereo not shown)	-15.35%	-12.96%	1.79%	5.505%	3.529%
Cc1cccc(-c2ccc(C(=O)N3CCSCC3)c(=O)[nH]2)c1	7.097%	7.441%	5.469%	-16.85%	10.88%
COC(=O)c1ccc(NC(=O)NC2CCc3[nH]ncc3C2)cc1 (stereo not shown)	-4.06%	-4.459%	0%	6.25%	6.329%
CCNc1ccnc(-c2ccnc3c2ccn3C)n1	-64.56%	-4.417%	6.452%	31.58%	7.263%
CN(Cc1ccsc1)C(=O)Nc1ccc(N2CCCC2)nc1	-62.73%	22.14%	5.249%	22.03%	12%
Cc1nc([C@H]2C[C@@H]3CCN(Cc4ccc5c(c4)OCO5)C[C@H]3O2)no1	-4.481%	0.5054%	1.724%	6%	-2.062%
COc1ccc(C2CCCN2Cc2nnnn2C2CC2)cc1OC (stereo not shown)	-13.53%	-11.1%	3.827%	28.4%	2.232%
O=C1NC2(CCN(c3ncccn3)CC2)CC1c1cccnc1 (stereo not shown)	4.582%	-3.772%	3.585%	27%	10.2%
COc1ccc(CNC2CCCN(Cc3noc(C)n3)C2)cc1F (stereo not shown)	1.883%	-19.31%	-2.892%	2.74%	3.817%
Cc1nc(C)c(C(C)NCc2c(C(C)C)nn(C)c2N(C)C)s1 (stereo not shown)	1.166%	3.475%	2.893%	9.821%	8.333%
O=C(c1ccoc1)N1CC[C@H]2C[C@@H](c3nnc(C4CC4)o3)O[C@@H]2C1	-7.329%	7.399%	2.469%	4.545%	2.116%
CCc1nsc(N2CCCN(C(=O)c3ccc(CC)o3)CC2)n1	-11.19%	-11.35%	5.159%	2.679%	3.448%
O=C(CN1CCCC1Cn1cncn1)NCCc1c(F)cccc1F (stereo not shown)	0.0925%	-	14.52%	28.79%	0.7576%
Cc1ccc(CN(CCCN(C)C)Cc2cnc(N(C)C)nc2)o1	-2.282%	14.58%	-5.425%	4.225%	-17.42%
CNC(=O)CS(=O)(=O)C1CCN(S(=O)(=O)c2cccc(C(C)=O)c2)CC1	-12.03%	0.5488%	1.873%	-1.653%	2.041%
CCc1noc(CNCCn2cc(C)cn2)n1	-2.413%	6.78%	4.847%	18.18%	6.433%
CCC(=O)N1CCCC(C(=O)N2CCN(c3cnn(C)c(=O)c3)CC2)C1 (stereo not shown)	7.708%	-35.99%	4.497%	10%	4.545%
COc1cccc(CN2CCCCCC2c2cccs2)c1OC (stereo not shown)	12.58%	-1.922%	3.49%	4.494%	8.543%
COCCNC(=O)Nc1ccc(-n2cncn2)c(C(F)(F)F)c1	-9.646%	-21.77%	5.627%	12.84%	1.176%
O=C(C1CCC1)N1CCC2(COCc3cnc(N4CCOCC4)nc32)C1 (stereo not shown)	12.34%	-8.754%	0.8883%	5.66%	0.5405%
CSc1ncc(C(=O)NCc2cc3n(n2)CCCN(CC(C)C)C3)cn1	-0.2029%	32.78%	3.268%	5.263%	4.372%
Cc1ccc(N2CCCC(c3[nH]ncc3-c3ccccc3)C2)nn1 (stereo not shown)	5.039%	-37.68%	1.499%	5%	11.36%
O=C(NCCCc1ccco1)c1ccc(N2CCOCC2)cc1	-9.431%	-3.499%	-0.6274%	5.085%	2.439%
CCC1CCC(CNC(=O)c2c[nH]c(=O)c(Cl)c2)CC1 (stereo not shown)	-4.586%	-15.89%	-0.6148%	4.286%	2.128%
Cc1nc(C)c(C(=O)OCCNc2ncccc2C#N)s1	-8.305%	1.943%	0.7905%	3.125%	2.662%
CCCNC(=O)N1CCc2ccc(S(=O)(=O)N3CCN(C)CC3)cc2C1	-8.266%	-4.751%	0.4969%	11.11%	2.564%
CCN(Cc1cc(F)c(OC)c(Cl)c1)Cc1nc(COC)no1	-13.4%	8.83%	4.092%	13.11%	-2.02%
OC1(CNC2CCN(c3ccccn3)CC2)CCc2ccccc21 (stereo not shown)	-3.045%	-24.72%	3.823%	7.692%	0.5618%
O=C(NC1CCN(C2CC2)CC1)NC1CCOc2ccc(Br)cc21 (stereo not shown)	6.624%	-29.06%	-6.024%	-1.493%	2.128%
CN(Cc1ccon1)C1CCN(c2cccc(-c3cscn3)c2)CC1	-0.5636%	-3.655%	1.44%	8.602%	10.99%
O=C(CCn1cncn1)N1C[C@H]2CC[C@@H]1CN(Cc1ccncc1)C2	6.37%	0.6136%	6.009%	14.75%	-3.488%
O=C(NCCSC1CCCC1)c1ccc(F)cc1F	6.673%	-15.96%	15.4%	25%	-3.191%
CN1CCCC(N2CCN(c3cc(C(F)(F)F)ccn3)CC2)C1 (stereo not shown)	-6.835%	13.31%	-17.54%	6.667%	4.902%

Some entries from above, unchanged:

* CCC1CCC(CNC(=O)c2c[nH]c(=O)c(Cl)c2)CC1 (stereo not shown) | ClpP1P2: -4.586%; Pks13 thioesterase: -15.89%; CoaBC: -0.6148%; LiHisRS: 4.286%; TcHisRS: 2.128%
* COc1ccc(C2CCCN2Cc2nnnn2C2CC2)cc1OC (stereo not shown) | ClpP1P2: -13.53%; Pks13 thioesterase: -11.1%; CoaBC: 3.827%; LiHisRS: 28.4%; TcHisRS: 2.232%
* CCc1noc(C)c1C(=O)N1CCCC(n2nc(C)nc2C)C1 (stereo not shown) | ClpP1P2: -15.35%; Pks13 thioesterase: -12.96%; CoaBC: 1.79%; LiHisRS: 5.505%; TcHisRS: 3.529%
* Cc1c(COc2ccccc2)cccc1NC(=O)N1CC[C@H](O)C1 | ClpP1P2: -0.9236%; Pks13 thioesterase: -9.737%; CoaBC: 10.89%; LiHisRS: -155.9%; TcHisRS: 3.333%
* NCC1CN(c2nc(-c3cccnc3)nc3c2CCNCC3)CCO1 (stereo not shown) | ClpP1P2: 6.13%; Pks13 thioesterase: -5.22%; CoaBC: 13.21%; LiHisRS: 27.42%; TcHisRS: 0%